{
  "source": "paper PMC12608182",
  "note": "The exact form of at least one protein or probe is not confirmed. Negatives hold for the conditions tested.",
  "data": [
    {"system": "GST-SlMADS48 (Solanum lycopersicum (tomato))", "assay": "EMSA", "details": "EMSA with purified GST-SlMADS48 and 5'-biotin probes, PAGE, chemiluminescent detection; pH and temperature not stated; recombinant protein; protein details: N-terminal GST (pGEX4T-1); label: 5'-biotin on both strands", "values": [
      {"sequence": "ATGAACAACCCTATTTATAGAGTGAGAAAT (double strand) [SlTM3 promoter CArG M1 probe]", "binding result": "binds"},
      {"sequence": "ATTAAAGGGTATATACTTTAATTTGGATTTAAGTGTATTT (double strand) [SlcycD6;1 promoter CArG M2 probe]", "binding result": "binds"},
      {"sequence": "ATTTTGAATACTATAAATAGTGATGTAGTT (double strand) [SlTM3 promoter CArG M2 probe]", "binding result": "binds"},
      {"sequence": "CTATGAGAGGCTTAATATAGTAGTATGTTG (double strand) [SlTM3 promoter CArG M3 probe]", "binding result": "no binding"},
      {"sequence": "TTCAAATGCAAATTTCTTATTAAAGTTTGAATTTTAAAAA (double strand) [SlIAA29 promoter CArG M5 probe]", "binding result": "binds"}
    ]}
  ]
}
